Experimental data taken from US12643935B2 (UNIVERSITY OF SOUTHERN CALIFORNIA, priority 2020, dated 2026).
Where no end group is shown, it is not given here. [ ]: non-standard residue; d: D form. Pra = C#CC[C@H](N)C(=O)O

Experiment: general procedure: Fmoc solid-phase peptide synthesis; Rink amide AM resin (0.47 mmol/g); HBTU/DIEA
Conditions: whole synthesis; for isolated yield: scale of the general procedure 100 mg Fmoc-Pra-rink amide resin

| Substance | isolated mass [mg] | isolated yield [%] |
| --- | --- | --- |
| YKLNLIHPHIFLMDWIFASG[Pra] | 6.6 | 5.6 |
| MRIFAVFIFMTYWHLLNAK[Pra] | 19 | 16.1 |
| MPIFLDHILNKFWILHYASG[Pra] | 24.2 | 20.5 |
